{"sequences": {"note": "Amino acid sequences for entries named in this document (tags omitted).", "UniProt Q9UKV5": "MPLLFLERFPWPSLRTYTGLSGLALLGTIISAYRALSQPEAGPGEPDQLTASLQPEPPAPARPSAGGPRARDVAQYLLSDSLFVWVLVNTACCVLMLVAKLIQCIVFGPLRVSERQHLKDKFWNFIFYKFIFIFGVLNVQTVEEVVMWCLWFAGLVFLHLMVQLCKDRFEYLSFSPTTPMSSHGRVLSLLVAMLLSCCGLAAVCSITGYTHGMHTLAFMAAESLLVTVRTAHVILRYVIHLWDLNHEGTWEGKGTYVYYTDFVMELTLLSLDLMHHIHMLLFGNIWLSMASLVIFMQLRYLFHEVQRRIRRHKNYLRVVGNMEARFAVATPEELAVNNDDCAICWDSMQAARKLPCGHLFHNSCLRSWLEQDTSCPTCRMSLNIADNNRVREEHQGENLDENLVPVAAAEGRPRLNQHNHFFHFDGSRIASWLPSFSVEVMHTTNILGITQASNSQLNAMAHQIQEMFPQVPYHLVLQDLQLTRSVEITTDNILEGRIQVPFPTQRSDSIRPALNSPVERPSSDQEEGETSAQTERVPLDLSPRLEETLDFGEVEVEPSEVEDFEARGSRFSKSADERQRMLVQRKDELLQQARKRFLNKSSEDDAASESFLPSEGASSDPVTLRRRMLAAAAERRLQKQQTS", "UniProt P18850": "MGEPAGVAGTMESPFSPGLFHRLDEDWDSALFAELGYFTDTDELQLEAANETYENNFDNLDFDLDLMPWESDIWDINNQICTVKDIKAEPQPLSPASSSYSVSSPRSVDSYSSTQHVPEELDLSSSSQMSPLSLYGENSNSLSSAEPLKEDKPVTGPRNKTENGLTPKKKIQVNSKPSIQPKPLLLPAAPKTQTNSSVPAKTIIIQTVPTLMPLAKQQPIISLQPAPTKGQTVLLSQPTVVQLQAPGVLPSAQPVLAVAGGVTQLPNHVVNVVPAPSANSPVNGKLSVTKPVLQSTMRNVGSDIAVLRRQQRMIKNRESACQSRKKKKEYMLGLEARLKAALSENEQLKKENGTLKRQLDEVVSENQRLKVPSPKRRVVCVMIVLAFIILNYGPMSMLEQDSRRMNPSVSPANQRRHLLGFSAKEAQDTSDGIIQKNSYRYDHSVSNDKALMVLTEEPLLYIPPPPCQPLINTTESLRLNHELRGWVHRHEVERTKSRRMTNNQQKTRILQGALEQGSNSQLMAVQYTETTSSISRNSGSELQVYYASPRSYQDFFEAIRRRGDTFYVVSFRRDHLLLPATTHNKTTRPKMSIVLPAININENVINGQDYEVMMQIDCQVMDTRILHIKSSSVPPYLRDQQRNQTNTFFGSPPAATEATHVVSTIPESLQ"}, "source": "paper PMC2811200", "biological_target": "gp78 (endogenous) (human (endogenous in HEK293)) (UniProt Q9UKV5)", "assay": "co-IP; endogenous gp78 immunoprecipitated with anti-gp78 antibody from lysates of HEK293 cells transfected with Nhtt17Q, Nhtt138Q, FLAG-ATF6 or empty vector; 150 mM NaCl, 20 mM Tris pH 8.0, 5 mM EDTA, 0.5% NP40; immunoblot", "note": "These are yes or no findings as the source states them, for the method shown. Binding seen in cells or lysates may run through a third protein."}
{"substance": "FLAG-ATF6 (from UniProt P18850 1-670)", "values": [{"measurement": "binding", "value": "no binding"}]}
